Source: patent US11951131B2, “Anti-SLAMF7 chimeric antigen receptors” (The United States of America, as represented by the …, priority 2018, dated 2024)

Tested on: primary human T cells
Assay: CAR detection on transduced T cells (Protein L staining, flow cytometry)
Assay type: cell-based

B1: Luc63-CD828Z: anti-SLAMF7 CAR (SEQ ID NO: 28): identical to Luc90-CD828Z except scFv from humanized Luc63 antibody (protein)
chain: MALPVTALLLPLALLLHAARPDIQMTQSPSSLSASVGDRVTITCKASQDVGIAVAWYQQKPGKVPKLLIYWASTRHTGVPDRFSGSGSGTDFTLTISSLQPEDVATYYCQQYSSYPYTFGQGTKVEIKGSTSGSGKPGSGEGSTKGEVQLVESGGGLVQPGGSLRLSCAASGFDFSRYWMSWVRQAPGKGLEWIGEINPDSSTINYAPSLKDKFIISRDNAKNSLYLQMNSLRAEDTAVYYCARPDGNYWYFDVWGQGTLVTVSSFVPVFLPAKPTTTPAPRPPTPAPTIASQPLSLRPEACRPAAGGAVHTRGLDFACDIYIWAPLAGTCGVLLLSLVITLYCNHRNRSKRSRLLHSDYMNMTPRRPGPTRKHYQPYAPPRDFAAYRSRVKFSRSADAPAYQQGQNQLYNELNLGRREEYDVLDKRRGRDPEMGGKPRRKNPQEGLYNELQKDKMAEAYSEIGMKGERRRGKGHDGLYQGLSTATKDTYDALHMQALPPR
Table B-1, staining the T cells with Protein L
  % CAR^+: 62%
gamma-retroviral transduction, in words
  CAR expression on T cells: expressed on the surface of CAR T cells
